Source: PMC5916273, “Structure of a VirD4 coupling protein bound to a VirB type IV secretion machinery” (The EMBO Journal, 2017)
Results are given in words; binding and its absence hold for the method and conditions named. Binding seen in cells or lysates may run through a third protein. For some assays here: Binding calls can cover weak binding; strength is not graded here. For some assays here: Sequences can lack the tags named with a protein.

T1: TrwB/VirD4 coupling protein of plasmid R388, C-terminally His-tagged (conjugative plasmid R388) (UniProt Q04230)
T1 sequence: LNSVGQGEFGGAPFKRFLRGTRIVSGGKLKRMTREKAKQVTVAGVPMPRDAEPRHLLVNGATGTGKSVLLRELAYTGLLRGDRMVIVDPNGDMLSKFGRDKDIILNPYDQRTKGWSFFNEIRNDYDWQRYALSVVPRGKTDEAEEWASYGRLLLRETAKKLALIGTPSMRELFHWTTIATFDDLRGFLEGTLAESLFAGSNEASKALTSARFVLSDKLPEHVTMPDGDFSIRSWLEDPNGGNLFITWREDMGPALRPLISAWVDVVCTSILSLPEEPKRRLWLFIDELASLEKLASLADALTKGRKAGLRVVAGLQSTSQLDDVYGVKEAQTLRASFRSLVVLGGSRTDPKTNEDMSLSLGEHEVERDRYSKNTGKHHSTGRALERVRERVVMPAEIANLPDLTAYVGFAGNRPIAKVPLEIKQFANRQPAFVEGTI

B1: TrwB/VirD4 coupling protein of plasmid R388, C-terminally His-tagged (protein, UniProt Q04230 71-507)
chain: T1 sequence
B2: TrwB/VirD4 of plasmid R388 with a FLAG tag inserted at Thr236, N-terminally His-tagged (protein, UniProt Q04230 71-507)
chain: T1 sequence
B3: OmpC (protein, UniProt P06996 22-367)
chain: AEVYNKDGNKLDLYGKVDGLHYFSDNKDVDGDQTYMRLGFKGETQVTDQLTGYGQWEYQIQGNSAENENNSWTRVAFAGLKFQDVGSFDYGRNYGVVYDVTSWTDVLPEFGGDTYGSDNFMQQRGNGFATYRNTDFFGLVDGLNFAVQYQGKNGNPSGEGFTSGVTNNGRDALRQNGDGVGGSITYDYEGFGIGGAISSSKRTDAQNTAAYIGNGDRAETYTGGLKYDANNIYLAAQYTQTYNATRVGSLGWANKAQNFEAVAQYQFDFGLRPSLAYLQSKGKNLGRGYDDEDILKYVDVGATYYFNKNMSTYVDYKINLLDDNQFTRDAGINTDNIVALGLVYQF

Experiments:
[1] = biological target: T1, TrwB/VirD4 coupling protein of plasmid R388, C-terminally His-tagged (conjugative plasmid R388); assay: pull-down; two consecutive tag-affinity steps from DDM/digitonin/TDAO-solubilised membranes of E. coli TOP10 co-expressing the trw cluster: Strep column on TrwE-Strep, then HisTrap on His-tagged TrwB; 50 mM HEPES pH 7.6, 200 mM sodium acetate, 0.1% digitonin, 0.05 mM TDAO; SDS-PAGE, bands identified by mass spectrometry, Western blots; same composition with the ΔtrwL/virB2, ΔtrwJ/virB5 and ΔtrwD/virB11 constructs
[2] = biological target: TrwE/VirB10 of plasmid R388, C-terminally Strep-tagged (conjugative plasmid R388); assay: as above
[3] = biological target: T4SS_(3-10) complex of plasmid R388 (TrwM/VirB3 to TrwE/VirB10) (conjugative plasmid R388); assay: as above
[4] = biological target: TrwE/VirB10 of plasmid R388, C-terminally Strep-tagged (conjugative plasmid R388); assay: pull-down; T4SS3-10 complex purified from cells expressing pBADM11_trwN/virB1-trwE/virB10Strep_trwD/virB11 (no TrwB); SDS-PAGE, Sypro Ruby

Molecule	binding [1]	other results
TrwI/VirB6 of plasmid R388 (conjugative plasmid R388)	binds	–
TrwK/VirB4 of plasmid R388 (conjugative plasmid R388)	binds	–
TrwG/VirB8 of plasmid R388 (conjugative plasmid R388)	binds	–
TrwH/VirB7 of plasmid R388 (conjugative plasmid R388)	binds	–
TrwM/VirB3 of plasmid R388 (conjugative plasmid R388)	binds	–
TrwJ/VirB5 of plasmid R388 (conjugative plasmid R388)	binds	–
TrwF/VirB9 of plasmid R388 (conjugative plasmid R388)	binds	–
B1	–	binding [2]: binds; binding [3]: binds
B2	–	binding [3]: binds
B3	–	binding [4]: no binding
